Values from PubChem BioAssay AID652243 (Drosophila RNAi Screening Center, 2013)

Test: 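Knock-downs that decrease or increase androgen receptor reporter signal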 (primary screen)
Cell system: Drosophila S2R+ cells
Reagents: long dsRNA against Drosophila genes
Duration: 72 h (48 h, then 24 h hormone)
Challenge: synthetic androgen R1881 at 10 nM for 24 h
Measured: 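Per-well raw luminescence of the androgen-driven firefly reporter and of the Renilla control, two replicates each, without normalisation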
Direction: firefly reporter light: higher = more light from androgen-responsive reporter; Renilla control light: higher = more constitutive control signal (cell number, transfection)
Hit rule: 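Across duplicate plates, a knock-down whose log firefly/Renilla ratio shifted a set fold down or up from the GFP/LacZ control mean was a hit; the downward cut appears as both 1.5 and 3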
Meaning of the calls: active = hit: reporter lowered or raised; inactive = no hit
The screen tested about 24,000 reagents; this is a random part of those with a known target gene and a result. Over the whole deposit, 246 (1%) got an active call. 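Plates not normalised; calls are printed but the firefly/Renilla ratio behind them is not deposited; fold cut for lowering reported inconsistently.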 Raw values are not corrected between plates. Reagents against one gene are numbered here. Names joined by + are all predicted targets of the reagent. No sequences are given here. Not given: the amount of reagent.

For CG15864 (GeneID 50001) #1, the entry reads firefly reporter light, replicate 1 = 1.01e5; firefly reporter light, replicate 2 = 1.11e5; Renilla control light, replicate 1 = 2.14e6; Renilla control light, replicate 2 = 2.11e6; inactive.
CG15864 (GeneID 50001) #2 scored firefly reporter light, replicate 1 = 5.43e5; firefly reporter light, replicate 2 = 4.18e5; Renilla control light, replicate 1 = 6.50e5; Renilla control light, replicate 2 = 6.85e5; inactive.
For lncRNA:roX1 (GeneID 3772376), the entry reads firefly reporter light, replicate 1 = 8.77e5; firefly reporter light, replicate 2 = 7.55e5; Renilla control light, replicate 1 = 1.74e6; Renilla control light, replicate 2 = 1.50e6; inactive.
CG15465 (GeneID 31434) #1 scored firefly reporter light, replicate 1 = 2.81e5; firefly reporter light, replicate 2 = 3.12e5; Renilla control light, replicate 1 = 2.17e6; Renilla control light, replicate 2 = 2.02e6; inactive.
For CG15465 (GeneID 31434) #2 the deposit lists firefly reporter light, replicate 1 = 1.76e5; firefly reporter light, replicate 2 = 1.60e5; Renilla control light, replicate 1 = 5.94e5; Renilla control light, replicate 2 = 5.37e5; inactive.
Knock-down of CG13026 (GeneID 39868) resulted in: firefly reporter light, replicate 1 = 2.78e5; firefly reporter light, replicate 2 = 1.64e5; Renilla control light, replicate 1 = 3.14e6; Renilla control light, replicate 2 = 2.14e6; inactive.
Vmat + CG13330 #1 showed firefly reporter light, replicate 1 = 1.34e6; firefly reporter light, replicate 2 = 1.33e6; Renilla control light, replicate 1 = 2.51e6; Renilla control light, replicate 2 = 2.68e6; inactive.
Depletion of Vmat + CG13330 #2 resulted in: firefly reporter light, replicate 1 = 4.34e5; firefly reporter light, replicate 2 = 3.81e5; Renilla control light, replicate 1 = 1.66e6; Renilla control light, replicate 2 = 1.49e6; inactive.
Depletion of CG16868 (GeneID 37298) gave: firefly reporter light, replicate 1 = 1.62e6; firefly reporter light, replicate 2 = 7.61e5; Renilla control light, replicate 1 = 2.06e6; Renilla control light, replicate 2 = 9.60e5; inactive.
After knock-down of sncRNA:430e + His2A:CG33859 + His2A:CG33817 + 37 more, the screen gave firefly reporter light, replicate 1 = 1.74e5; firefly reporter light, replicate 2 = 1.49e5; Renilla control light, replicate 1 = 1.53e5; Renilla control light, replicate 2 = 1.18e5; inactive.
After knock-down of ng3 (GeneID 31299) #1, the screen gave firefly reporter light, replicate 1 = 2.22e5; firefly reporter light, replicate 2 = 1.66e5; Renilla control light, replicate 1 = 3.21e6; Renilla control light, replicate 2 = 2.29e6; inactive.
Knock-down of ng3 (GeneID 31299) #2 gave: firefly reporter light, replicate 1 = 4.83e5; firefly reporter light, replicate 2 = 4.01e5; Renilla control light, replicate 1 = 5.28e5; Renilla control light, replicate 2 = 4.50e5; inactive.
After knock-down of CG30291 (GeneID 246534), the record shows firefly reporter light, replicate 1 = 3.94e5; firefly reporter light, replicate 2 = 4.00e5; Renilla control light, replicate 1 = 1.13e6; Renilla control light, replicate 2 = 1.27e6; inactive.
Icmt (GeneID 39478) scored firefly reporter light, replicate 1 = 2.15e5; firefly reporter light, replicate 2 = 1.76e5; Renilla control light, replicate 1 = 2.14e6; Renilla control light, replicate 2 = 2.02e6; inactive.

An excerpt of the results above, for reference:
CG15465 (GeneID 31434) #2: firefly reporter light, replicate 1 = 1.76e5; firefly reporter light, replicate 2 = 1.60e5; Renilla control light, replicate 1 = 5.94e5; Renilla control light, replicate 2 = 5.37e5; call = inactive
CG13026 (GeneID 39868): firefly reporter light, replicate 1 = 2.78e5; firefly reporter light, replicate 2 = 1.64e5; Renilla control light, replicate 1 = 3.14e6; Renilla control light, replicate 2 = 2.14e6; call = inactive
Vmat + CG13330 #1: firefly reporter light, replicate 1 = 1.34e6; firefly reporter light, replicate 2 = 1.33e6; Renilla control light, replicate 1 = 2.51e6; Renilla control light, replicate 2 = 2.68e6; call = inactive
Vmat + CG13330 #2: firefly reporter light, replicate 1 = 4.34e5; firefly reporter light, replicate 2 = 3.81e5; Renilla control light, replicate 1 = 1.66e6; Renilla control light, replicate 2 = 1.49e6; call = inactive

Further results follow.
Depletion of CG13282 (GeneID 35019) gave: firefly reporter light, replicate 1 = 76367; firefly reporter light, replicate 2 = 1.04e5; Renilla control light, replicate 1 = 1.36e6; Renilla control light, replicate 2 = 1.32e6; inactive.
For CG12963 (GeneID 36724) the deposit lists firefly reporter light, replicate 1 = 59811; firefly reporter light, replicate 2 = 83982; Renilla control light, replicate 1 = 1.36e6; Renilla control light, replicate 2 = 1.36e6; inactive.
Knock-down of mew (GeneID 32275) #1 gave: firefly reporter light, replicate 1 = 1.24e6; firefly reporter light, replicate 2 = 9.63e5; Renilla control light, replicate 1 = 2.33e6; Renilla control light, replicate 2 = 1.08e6; inactive.
For mew (GeneID 32275) #2, the entry reads firefly reporter light, replicate 1 = 3.87e5; firefly reporter light, replicate 2 = 3.58e5; Renilla control light, replicate 1 = 1.64e6; Renilla control light, replicate 2 = 2.01e6; inactive.
Against CG12912 (GeneID 36075), the values are firefly reporter light, replicate 1 = 2.96e5; firefly reporter light, replicate 2 = 2.97e5; Renilla control light, replicate 1 = 1.17e6; Renilla control light, replicate 2 = 8.39e5; inactive.
After knock-down of CG18223 (GeneID 40068) the results were firefly reporter light, replicate 1 = 2.63e5; firefly reporter light, replicate 2 = 1.98e5; Renilla control light, replicate 1 = 2.91e6; Renilla control light, replicate 2 = 2.74e6; inactive.
After knock-down of Sema1b (GeneID 37007) #1 the results were firefly reporter light, replicate 1 = 6.74e5; firefly reporter light, replicate 2 = 1.20e6; Renilla control light, replicate 1 = 5.61e5; Renilla control light, replicate 2 = 8.13e5; inactive.
With knock-down of Sema1b (GeneID 37007) #2 the results were firefly reporter light, replicate 1 = 3.17e5; firefly reporter light, replicate 2 = 2.74e5; Renilla control light, replicate 1 = 8.13e5; Renilla control light, replicate 2 = 9.16e5; inactive.
Against su(r) (GeneID 31858) the deposit lists firefly reporter light, replicate 1 = 51511; firefly reporter light, replicate 2 = 39138; Renilla control light, replicate 1 = 5.76e5; Renilla control light, replicate 2 = 4.39e5; inactive.
Against CG8097 (GeneID 32495), the entry reads firefly reporter light, replicate 1 = 3.61e5; firefly reporter light, replicate 2 = 3.71e5; Renilla control light, replicate 1 = 3.66e6; Renilla control light, replicate 2 = 3.72e6; inactive.
Against CG14837 (GeneID 38849) the deposit lists firefly reporter light, replicate 1 = 1.32e5; firefly reporter light, replicate 2 = 1.36e5; Renilla control light, replicate 1 = 1.59e6; Renilla control light, replicate 2 = 1.46e6; inactive.
For chb (GeneID 43901) #1, the entry reads firefly reporter light, replicate 1 = 68049; firefly reporter light, replicate 2 = 71761; Renilla control light, replicate 1 = 2.30e5; Renilla control light, replicate 2 = 2.06e5; inactive.
With knock-down of chb (GeneID 43901) #2 the results were firefly reporter light, replicate 1 = 4.09e5; firefly reporter light, replicate 2 = 3.13e5; Renilla control light, replicate 1 = 1.38e6; Renilla control light, replicate 2 = 1.36e6; inactive.
